PMC11749472

Target: ARM-Flag (ARM domain of SARM1) (human)
Test: co-IP; HEK293T lysates in co-IP buffer (50 mM Tris-HCl pH 7.4, 150 mM NaCl, 1% NP-40, 1 mM EDTA, 5% glycerol), mouse anti-Flag beads at 4°C overnight, Western blot; for ARM-TIR also with USP13 OE, USP13 KD (siRNA cocktail) or USP13^AE OE

B1: TIR-myc (TIR domain of SARM1) (domain or fragment, UniProt Q6SZW1 560-703)
chain: DTPDVFISYRRNSGSQLASLLKVHLQLHGFSVFIDVEKLEAGKFEDKLIQSVMGARNFVLVLSPGALDKCMQDHDCKDWVHKEIVTALSCGKNIVPIIDGFEWPEPQVLPEDMQAVLTFNGIKWSHEYQEATIEKIIRFLQGRS
Q: Which binding does the source give for B1 here?
A: Its binding is “binds”.

These are yes or no findings as the source states them, for the method shown. Binding seen in cells or lysates may run through a third protein. A result given as binding can be weak or reduced; the word gives no strength. Where a sequence is shown, tags or fusion partners need not be part of it.
